# Data as given in PubChem BioAssay AID1259284 (Sanger Institute, 2017)
# Test: 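siRNA screen across the kinome seeking partners for BYL719, cetuximab or trametinib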 (primary screen)
# System: SW48 human colorectal cancer cells
# Knock-down reagent: siRNA pool against human genes
# Treatment: anchor drug BYL719 at 1 µM, cetuximab at 5 µg/ml or trametinib at 10 nM, or DMSO vehicle alone
# Detection: 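Viability scaled to non-targeting control pool, robust z-score from controls, and synergy scores for each drug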
# Direction: robust z-score, no drug: higher = more cells survive knock-down; viability, no drug: higher = more viable cells; synergy with BYL719 and synergy with trametinib and synergy with cetuximab: higher = stronger combined killing with drug
# Rule for the call: 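Called essential when the robust z-score of viability without drug falls below -3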
# Calls: active = essential without drug; inactive = no change without drug
# In all, the deposit lists 794 reagents; this is a random part of them. 16 of all reagents (2%) count as active. 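Calls concern knock-down without drug only; drug synergy was judged apart, with scores above 0.15 taken as synergy.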 No viability above 1 is reported: the scale is capped. Not stated in the record: the amount of reagent, the time to read-out.
gene,"robust z-score, no drug","viability, no drug (fraction of control)",synergy with BYL719,synergy with trametinib,synergy with cetuximab,Call
PRKCQ (GeneID 5588),0.426,1,-0.104,-0.0114,0.114,inactive
CHKB (GeneID 1120),0.426,1,-0.213,-0.222,-0.131,inactive
CDKN1B (GeneID 1027),0.426,1,-0.151,-0.0758,-0.108,inactive
PTEN (GeneID 5728),0.426,1,-0.365,-0.261,-0.0735,inactive
ERN2 (GeneID 10595),0.426,1,-0.101,-0.0943,-0.0168,inactive
SIK1 (GeneID 150094),0.426,1,-0.196,-0.107,0.0386,inactive
PGK2 (GeneID 5232),0.426,1,-0.367,-0.252,-0.165,inactive
CLK1 (GeneID 1195),0.426,1,-0.148,-0.0597,-0.125,inactive
RPS6KC1 (GeneID 26750),0.0528,0.968,-0.0479,-0.0619,0.0498,inactive
GATA3 (GeneID 2625),-1.16,0.864,-0.166,0.094,0.0414,inactive
TRIB1 (GeneID 10221),0.426,1,-0.336,-0.218,-0.165,inactive
SRPK2 (GeneID 6733),0.426,1,-0.102,-0.212,-0.0073,inactive
EIF2AK1 (GeneID 27102),0.426,1,-0.193,-0.19,-0.165,inactive
STRADB (GeneID 55437),0.426,1,-0.205,-0.0837,-0.165,inactive
NIM1K (GeneID 167359),0.426,1,0.0125,0.0611,-0.101,inactive
ITSN1 (GeneID 6453),0.426,1,-0.141,0.148,-0.0908,inactive
TRIO (GeneID 7204),0.0142,0.965,-0.113,-0.241,-0.17,inactive
CDK3 (GeneID 1018),-0.00752,0.963,-0.144,-0.246,-0.0216,inactive
CDKN2B (GeneID 1030),0.426,1,-0.367,-0.305,-0.165,inactive
GRK6 (GeneID 2870),-1.07,0.872,-0.0556,-0.039,-0.111,inactive
MAPK7 (GeneID 5598),0.426,1,-0.305,-0.22,-0.165,inactive
SCYL1 (GeneID 57410),0.426,1,-0.333,-0.157,-0.165,inactive
TGFBR1 (GeneID 7046),0.426,1,-0.077,-0.0196,-0.0832,inactive
NUAK1 (GeneID 9891),0.426,1,-0.149,0.0269,-0.106,inactive
LIMK2 (GeneID 3985),0.426,1,-0.276,-0.0631,-0.165,inactive
PFKFB3 (GeneID 5209),-1.57,0.829,-0.033,0.0858,0.0546,inactive
AXL (GeneID 558),0.426,1,-0.207,-0.0389,-0.165,inactive
FLT3 (GeneID 2322),0.426,1,-0.245,0.0482,-0.0968,inactive
EPHB3 (GeneID 2049),0.426,1,-0.0527,0.0648,-0.103,inactive
DGKH (GeneID 160851),-1.6,0.826,-0.205,-0.122,-0.139,inactive
STK32C (GeneID 282974),0.426,1,-0.173,0.0246,-0.1,inactive
CDC42BPA (GeneID 8476),-2.23,0.772,-0.224,-0.146,-0.141,inactive
AK7 (GeneID 122481),0.426,1,-0.234,-0.203,-0.165,inactive
CTNNB1 (GeneID 1499),-0.518,0.919,-0.0879,-0.0333,-0.0346,inactive

Targets above whose target name begins with E or e:
gene,"robust z-score, no drug","viability, no drug (fraction of control)",synergy with BYL719,synergy with trametinib,synergy with cetuximab,Call
ERN2 (GeneID 10595),0.426,1,-0.101,-0.0943,-0.0168,inactive
EIF2AK1 (GeneID 27102),0.426,1,-0.193,-0.19,-0.165,inactive
EPHB3 (GeneID 2049),0.426,1,-0.0527,0.0648,-0.103,inactive
